# The supplement of paper PMC10849652
# The chains behind the UniProt entries cited, without tags or fusion partners. Where a name states a change or a piece, a line headed by the entry shows the natural chain unless it says otherwise.
# UniProt Q8IW50: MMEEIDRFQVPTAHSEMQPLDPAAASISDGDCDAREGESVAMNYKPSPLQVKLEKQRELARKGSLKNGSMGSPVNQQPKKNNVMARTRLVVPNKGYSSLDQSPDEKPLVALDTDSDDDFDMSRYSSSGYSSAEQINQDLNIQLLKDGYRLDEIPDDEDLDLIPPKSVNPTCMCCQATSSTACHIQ
# UniProt Q6PIJ6: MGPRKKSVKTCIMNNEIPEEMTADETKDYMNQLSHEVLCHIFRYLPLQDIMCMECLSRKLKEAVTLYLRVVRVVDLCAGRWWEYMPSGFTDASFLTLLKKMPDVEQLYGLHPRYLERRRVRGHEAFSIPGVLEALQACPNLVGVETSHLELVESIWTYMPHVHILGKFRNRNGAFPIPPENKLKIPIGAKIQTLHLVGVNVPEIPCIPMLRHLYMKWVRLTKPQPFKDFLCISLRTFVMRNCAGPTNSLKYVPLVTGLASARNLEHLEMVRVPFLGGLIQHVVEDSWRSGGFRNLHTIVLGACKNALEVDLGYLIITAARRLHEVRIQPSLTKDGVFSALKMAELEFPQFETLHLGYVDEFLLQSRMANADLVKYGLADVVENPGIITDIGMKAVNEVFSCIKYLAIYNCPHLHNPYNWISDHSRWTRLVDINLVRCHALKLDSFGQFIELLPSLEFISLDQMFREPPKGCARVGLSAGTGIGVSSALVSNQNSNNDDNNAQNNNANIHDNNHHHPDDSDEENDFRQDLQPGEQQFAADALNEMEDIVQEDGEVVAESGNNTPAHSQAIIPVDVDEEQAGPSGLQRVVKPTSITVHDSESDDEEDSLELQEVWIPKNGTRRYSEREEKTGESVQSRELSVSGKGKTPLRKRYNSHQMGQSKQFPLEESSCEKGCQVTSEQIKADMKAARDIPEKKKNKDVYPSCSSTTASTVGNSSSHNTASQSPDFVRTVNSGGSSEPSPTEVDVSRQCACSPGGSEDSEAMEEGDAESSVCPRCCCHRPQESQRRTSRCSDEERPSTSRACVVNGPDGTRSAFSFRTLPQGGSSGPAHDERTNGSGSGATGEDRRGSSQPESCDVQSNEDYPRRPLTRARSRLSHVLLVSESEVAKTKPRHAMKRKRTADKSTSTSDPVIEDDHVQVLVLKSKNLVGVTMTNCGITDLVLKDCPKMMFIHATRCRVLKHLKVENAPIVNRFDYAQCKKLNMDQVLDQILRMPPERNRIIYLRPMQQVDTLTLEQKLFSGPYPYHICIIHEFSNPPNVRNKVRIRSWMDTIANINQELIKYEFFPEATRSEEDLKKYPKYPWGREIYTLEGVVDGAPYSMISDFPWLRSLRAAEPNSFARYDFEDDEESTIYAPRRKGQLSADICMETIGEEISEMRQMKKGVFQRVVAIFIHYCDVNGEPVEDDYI
# UniProt P07954: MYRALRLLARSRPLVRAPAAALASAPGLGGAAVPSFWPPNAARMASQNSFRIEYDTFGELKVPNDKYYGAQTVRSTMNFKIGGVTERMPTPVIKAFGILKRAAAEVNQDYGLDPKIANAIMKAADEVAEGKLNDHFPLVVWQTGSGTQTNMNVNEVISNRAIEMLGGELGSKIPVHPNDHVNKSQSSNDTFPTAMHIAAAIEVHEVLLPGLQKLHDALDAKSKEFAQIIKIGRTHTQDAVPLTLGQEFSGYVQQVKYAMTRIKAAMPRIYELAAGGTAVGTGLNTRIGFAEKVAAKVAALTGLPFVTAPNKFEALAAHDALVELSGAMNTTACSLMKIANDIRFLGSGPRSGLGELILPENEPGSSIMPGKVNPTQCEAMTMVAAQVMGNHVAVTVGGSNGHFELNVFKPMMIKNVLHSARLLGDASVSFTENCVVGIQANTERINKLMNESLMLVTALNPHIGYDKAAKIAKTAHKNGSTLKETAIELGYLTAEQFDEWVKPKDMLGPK
# UniProt Q9UHY8: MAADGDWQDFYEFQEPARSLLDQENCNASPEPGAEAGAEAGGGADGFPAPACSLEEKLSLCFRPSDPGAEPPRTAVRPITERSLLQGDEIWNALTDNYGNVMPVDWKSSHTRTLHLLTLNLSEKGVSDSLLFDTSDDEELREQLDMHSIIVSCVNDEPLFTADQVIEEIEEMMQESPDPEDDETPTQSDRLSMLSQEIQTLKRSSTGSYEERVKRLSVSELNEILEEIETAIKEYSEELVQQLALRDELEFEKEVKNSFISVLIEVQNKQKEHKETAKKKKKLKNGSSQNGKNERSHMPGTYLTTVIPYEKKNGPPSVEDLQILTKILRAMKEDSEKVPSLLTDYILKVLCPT
# UniProt Q8NB91: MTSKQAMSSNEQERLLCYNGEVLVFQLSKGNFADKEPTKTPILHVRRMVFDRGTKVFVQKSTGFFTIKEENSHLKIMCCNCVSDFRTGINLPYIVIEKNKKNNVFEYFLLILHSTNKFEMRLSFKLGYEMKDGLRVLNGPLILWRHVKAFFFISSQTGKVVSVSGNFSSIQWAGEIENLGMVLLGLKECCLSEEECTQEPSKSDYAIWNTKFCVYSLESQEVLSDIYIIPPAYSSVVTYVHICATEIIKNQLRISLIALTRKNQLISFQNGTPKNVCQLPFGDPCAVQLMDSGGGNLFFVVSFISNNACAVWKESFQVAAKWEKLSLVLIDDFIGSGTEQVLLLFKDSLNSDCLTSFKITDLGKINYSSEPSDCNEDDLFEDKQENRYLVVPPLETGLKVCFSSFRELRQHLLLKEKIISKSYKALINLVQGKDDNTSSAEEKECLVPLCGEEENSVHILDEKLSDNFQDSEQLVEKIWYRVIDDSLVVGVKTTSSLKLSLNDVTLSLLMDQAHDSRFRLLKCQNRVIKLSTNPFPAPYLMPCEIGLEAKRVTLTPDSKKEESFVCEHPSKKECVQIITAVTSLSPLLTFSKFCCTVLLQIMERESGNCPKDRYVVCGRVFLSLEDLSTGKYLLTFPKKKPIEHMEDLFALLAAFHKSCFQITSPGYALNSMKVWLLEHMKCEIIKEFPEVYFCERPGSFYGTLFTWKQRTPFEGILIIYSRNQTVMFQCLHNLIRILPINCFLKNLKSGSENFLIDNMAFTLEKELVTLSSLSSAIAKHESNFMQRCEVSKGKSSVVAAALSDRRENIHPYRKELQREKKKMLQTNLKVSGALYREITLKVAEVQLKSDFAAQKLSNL
# UniProt Q9UKT5: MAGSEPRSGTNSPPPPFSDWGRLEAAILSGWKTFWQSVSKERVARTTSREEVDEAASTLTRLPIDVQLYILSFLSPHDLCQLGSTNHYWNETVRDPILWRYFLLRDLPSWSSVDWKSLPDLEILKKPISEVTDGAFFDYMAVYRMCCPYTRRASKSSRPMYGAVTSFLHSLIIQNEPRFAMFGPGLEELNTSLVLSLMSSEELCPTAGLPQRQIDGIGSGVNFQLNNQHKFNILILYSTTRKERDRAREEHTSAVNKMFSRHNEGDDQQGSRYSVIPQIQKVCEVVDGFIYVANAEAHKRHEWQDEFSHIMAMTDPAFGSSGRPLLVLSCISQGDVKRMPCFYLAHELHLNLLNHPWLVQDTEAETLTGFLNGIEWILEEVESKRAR
# UniProt Q96ME1: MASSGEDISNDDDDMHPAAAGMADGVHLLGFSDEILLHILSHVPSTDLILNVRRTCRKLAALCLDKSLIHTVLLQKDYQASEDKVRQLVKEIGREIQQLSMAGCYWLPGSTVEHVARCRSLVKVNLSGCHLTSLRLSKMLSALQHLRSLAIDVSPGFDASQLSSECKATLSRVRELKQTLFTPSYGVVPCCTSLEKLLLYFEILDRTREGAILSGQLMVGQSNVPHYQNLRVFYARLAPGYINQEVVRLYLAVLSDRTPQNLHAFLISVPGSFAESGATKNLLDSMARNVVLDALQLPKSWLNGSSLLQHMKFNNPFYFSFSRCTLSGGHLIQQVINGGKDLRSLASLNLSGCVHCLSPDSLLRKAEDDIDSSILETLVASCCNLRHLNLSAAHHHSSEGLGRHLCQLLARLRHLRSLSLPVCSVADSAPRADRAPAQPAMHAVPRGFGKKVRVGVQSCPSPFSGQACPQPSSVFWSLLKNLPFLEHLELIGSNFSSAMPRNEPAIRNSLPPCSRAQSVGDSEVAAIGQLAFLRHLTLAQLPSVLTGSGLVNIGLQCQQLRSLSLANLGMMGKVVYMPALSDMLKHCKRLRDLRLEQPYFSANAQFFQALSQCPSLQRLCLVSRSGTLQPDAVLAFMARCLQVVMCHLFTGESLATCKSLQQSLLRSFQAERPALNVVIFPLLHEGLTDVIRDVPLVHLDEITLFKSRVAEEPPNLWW
# UniProt Q8N8J7: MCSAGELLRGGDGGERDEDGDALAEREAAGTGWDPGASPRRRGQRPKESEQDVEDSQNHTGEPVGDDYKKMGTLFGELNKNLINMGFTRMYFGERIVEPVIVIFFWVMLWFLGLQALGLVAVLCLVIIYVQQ
# UniProt Q53R41: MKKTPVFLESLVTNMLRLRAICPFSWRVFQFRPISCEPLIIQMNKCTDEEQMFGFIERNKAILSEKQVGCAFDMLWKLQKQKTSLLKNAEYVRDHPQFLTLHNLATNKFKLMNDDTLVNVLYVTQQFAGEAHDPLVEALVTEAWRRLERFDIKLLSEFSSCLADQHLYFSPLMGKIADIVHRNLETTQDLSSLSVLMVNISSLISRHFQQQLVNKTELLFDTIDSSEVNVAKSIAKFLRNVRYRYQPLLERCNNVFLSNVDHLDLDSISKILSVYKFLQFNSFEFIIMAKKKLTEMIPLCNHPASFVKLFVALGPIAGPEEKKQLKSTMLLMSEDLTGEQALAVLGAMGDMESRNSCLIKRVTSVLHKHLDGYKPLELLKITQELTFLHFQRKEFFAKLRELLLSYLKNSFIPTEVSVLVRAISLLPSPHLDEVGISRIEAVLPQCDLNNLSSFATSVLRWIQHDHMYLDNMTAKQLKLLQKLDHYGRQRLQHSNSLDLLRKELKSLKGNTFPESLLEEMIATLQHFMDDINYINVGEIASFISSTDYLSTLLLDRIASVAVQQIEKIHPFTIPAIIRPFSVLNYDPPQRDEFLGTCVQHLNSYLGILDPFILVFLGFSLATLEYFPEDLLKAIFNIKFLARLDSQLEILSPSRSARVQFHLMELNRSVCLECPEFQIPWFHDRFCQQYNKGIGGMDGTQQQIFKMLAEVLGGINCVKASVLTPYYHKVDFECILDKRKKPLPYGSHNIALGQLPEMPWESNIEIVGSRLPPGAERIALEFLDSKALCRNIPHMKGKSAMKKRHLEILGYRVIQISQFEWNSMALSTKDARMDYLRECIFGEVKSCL
# UniProt Q8TAV0: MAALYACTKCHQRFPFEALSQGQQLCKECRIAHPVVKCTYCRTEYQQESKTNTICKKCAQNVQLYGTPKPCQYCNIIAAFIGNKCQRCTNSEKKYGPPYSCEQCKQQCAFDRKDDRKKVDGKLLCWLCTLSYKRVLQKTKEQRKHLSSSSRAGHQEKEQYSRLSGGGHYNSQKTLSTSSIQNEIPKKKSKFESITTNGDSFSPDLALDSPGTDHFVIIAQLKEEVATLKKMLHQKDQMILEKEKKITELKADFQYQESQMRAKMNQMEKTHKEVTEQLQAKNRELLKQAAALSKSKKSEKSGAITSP
# UniProt Q8NFZ0: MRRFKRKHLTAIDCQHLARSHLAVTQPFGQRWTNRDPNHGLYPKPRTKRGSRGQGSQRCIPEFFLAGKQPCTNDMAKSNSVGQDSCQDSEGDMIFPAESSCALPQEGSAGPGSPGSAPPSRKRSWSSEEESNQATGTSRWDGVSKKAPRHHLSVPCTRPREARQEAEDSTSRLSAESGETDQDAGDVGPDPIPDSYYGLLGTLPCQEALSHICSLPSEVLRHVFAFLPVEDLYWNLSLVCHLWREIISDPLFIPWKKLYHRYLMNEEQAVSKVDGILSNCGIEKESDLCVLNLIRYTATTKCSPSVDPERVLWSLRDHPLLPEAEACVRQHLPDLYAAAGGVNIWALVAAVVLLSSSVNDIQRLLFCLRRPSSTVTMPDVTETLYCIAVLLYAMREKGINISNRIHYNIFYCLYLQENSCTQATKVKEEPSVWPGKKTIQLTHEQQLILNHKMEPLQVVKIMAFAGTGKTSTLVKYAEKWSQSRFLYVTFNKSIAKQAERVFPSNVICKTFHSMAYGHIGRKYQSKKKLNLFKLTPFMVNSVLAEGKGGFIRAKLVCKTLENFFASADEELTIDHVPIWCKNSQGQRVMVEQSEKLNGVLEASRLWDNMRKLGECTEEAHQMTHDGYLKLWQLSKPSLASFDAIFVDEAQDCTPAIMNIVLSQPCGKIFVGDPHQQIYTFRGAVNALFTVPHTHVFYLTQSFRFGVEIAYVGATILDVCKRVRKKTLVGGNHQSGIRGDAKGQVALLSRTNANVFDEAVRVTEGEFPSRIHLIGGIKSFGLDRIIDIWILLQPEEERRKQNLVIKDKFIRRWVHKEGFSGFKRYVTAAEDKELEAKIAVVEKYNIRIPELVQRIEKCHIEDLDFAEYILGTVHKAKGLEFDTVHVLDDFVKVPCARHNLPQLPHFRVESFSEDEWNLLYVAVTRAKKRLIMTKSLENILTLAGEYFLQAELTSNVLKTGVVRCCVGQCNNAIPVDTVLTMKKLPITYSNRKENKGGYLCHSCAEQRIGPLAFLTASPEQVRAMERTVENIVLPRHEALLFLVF
# This is one part of the list.
# Columns and labels:
# Test in all cases: log2 fold change, soluble protein after heating vs DMSO (PISA); higher = thermal stabilisation; K562 cells, 10 uM, 30 min; active = over 0.2 and 3.5 SD of the protein, either way, in both replicates (recomputed)
# [1] = compound: NC(=O)Nc1cc(-c2cccc(F)c2)sc1C(=O)N[C@H]1CCCNC1
# Method in brief: (§1)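 Quantification of soluble protein used TMTpro 16plex LC-MS/MS, with channel sums equalised. Samples were the supernatant after 21,000xg for 90 min of pooled aliquots from K562 cells (2×10^6 cells/mL) treated with 10 μM compound for 30 min, heated for 3 min over 48°C-58°C, and extracted in PBS with 0.5% NP-40 at 4°C. Values, from duplicates, describe thermal stability against control samples on a log2 fold-change scale.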
# [2] = compound: NC(=O)c1cnc(N[C@@H]2CCCC[C@@H]2N)nc1Nc1cccc(-n2nccn2)c1
# Method in brief: as §1
# [3] = compound: NC1(c2ccc(-c3nc4ccn5c(=O)[nH]nc5c4cc3-c3ccccc3)cc2)CCC1
# Method in brief: as §1
# [4] = compound: NCC(=O)Nc1ccc(-n2nc(C(F)(F)F)cc2-c2ccc3c(ccc4ccccc43)c2)cc1
# Method in brief: as §1
# [5] = compound: Nc1ccccc1NC(=O)c1ccc(CNC(=O)OCc2cccnc2)cc1 [entinostat]
# Method in brief: as §1
# [6] = compound: O=C(CCCCCCC(=O)Nc1ccccc1)NO [vorinostat]
# Method in brief: as §1
# [7] = compound: O=C(CCCCCCNC(=O)c1cnc(N(c2ccccc2)c2ccccc2Cl)nc1)NO [citarinostat]
# Method in brief: as §1
# [8] = compound: O=C(O)c1ccc2c(c1)nc(Nc1cccc(Cl)c1)c1ccncc12 [silmitasertib]
# Method in brief: as §1
# [9] = compound: c1cc(OCCN2CCCCC2)cc(-c2n[nH]c3ccc(-c4nnc[nH]4)cc23)c1
# Method in brief: as §1
# [10] = compound: c1cn2cc(-c3ccc4cn[nH]c4c3)nc(Nc3ccc(N4CCOCC4)cc3)c2n1 [entospletinib]
# Method in brief: as §1
# [11] = compound: O=C1NC(=O)C(c2cnc3ccccn23)=C1c1cn2c3c(cc(F)cc13)CN(C(=O)N1CCCCC1)CC2
# Method in brief: as §1
Target,log2 fold change [1],log2 fold change [2],log2 fold change [3],log2 fold change [4],log2 fold change [5],log2 fold change [6],log2 fold change [7],log2 fold change [8],log2 fold change [9],log2 fold change [10],log2 fold change [11]
FAT4 (UniProt Q6V0I7),inactive: -0.127,inactive: -0.072,inactive: -0.059,inactive: -0.088,inactive: -0.049,inactive: 0.013,inactive: -0.025,inactive: -0.075,inactive: -0.017,inactive: -0.077,–
FNBP1L (UniProt Q5T0N5),inactive: -0.128,inactive: -0.142,inactive: -0.008,inactive: 0.006,inactive: -0.242,inactive: -0.013,–,inactive: 0.032,–,–,–
FLNC (UniProt Q14315),inactive: -0.038,inactive: -0.06,inactive: -0.079,inactive: -0.058,inactive: 0.015,inactive: 0.008,inactive: 0.025,inactive: 0.04,inactive: -0.036,inactive: 0.015,inactive: -0.003
FBRS (UniProt J3KNZ9),inactive: 0.683,inactive: 0.084,–,inactive: -0.169,inactive: 0.154,inactive: 0.099,–,–,–,–,inactive: 0.3
FCHSD1 (UniProt Q86WN1),inactive: 0.03,inactive: -0.186,–,–,inactive: -0.006,inactive: -0.008,inactive: 0.277,–,inactive: 0.116,inactive: -0.126,inactive: 0.01
FBXW2 (UniProt Q9UKT8),inactive: -0.019,inactive: 0.009,inactive: -0.137,inactive: 0.022,inactive: -0.037,–,–,inactive: -0.086,–,–,inactive: 0.036
FBXO22 (UniProt Q8NEZ5),inactive: 0.04,inactive: -0.013,inactive: -0.071,inactive: 0,inactive: 0.014,inactive: 0,inactive: 0.083,inactive: -0.025,inactive: 0.021,inactive: -0.023,inactive: -0.083
FAM219A (UniProt Q8IW50),inactive: -0.002,inactive: 0.028,inactive: 0.051,–,inactive: -0.04,–,inactive: -0.024,inactive: -0.047,inactive: -0.124,inactive: 0.008,inactive: -0.041
FBXO38 (UniProt Q6PIJ6),inactive: 0.146,inactive: -0.066,–,inactive: -0.06,inactive: -0.258,–,inactive: -0.002,–,inactive: -0.088,inactive: -0.004,inactive: 0.186
FH (UniProt P07954),inactive: -0.016,inactive: -0.022,inactive: -0.071,inactive: -0.01,inactive: -0.016,inactive: -0.013,inactive: -0.001,inactive: -0.015,inactive: -0.033,inactive: 0.078,inactive: -0.019
FGB (UniProt P02675),inactive: 0.049,inactive: 0.042,inactive: 0.077,inactive: 0.02,inactive: -0.051,inactive: 0.083,inactive: -0.205,inactive: -0.064,inactive: -0.14,inactive: 0.16,–
FEZ2 isoform 2 (UniProt Q9UHY8),inactive: -0.007,inactive: -0.086,inactive: 0.021,inactive: -0.182,inactive: 0.092,inactive: 0.047,–,inactive: 0.021,–,–,–
FANCB (UniProt Q8NB91),inactive: 0.077,inactive: -0.016,inactive: 0.024,inactive: 0.03,inactive: -0.018,inactive: -0.073,inactive: 0.093,inactive: -0.008,inactive: 0.022,inactive: 0.017,inactive: -0.008
FAM234B (UniProt A2RU67),inactive: 0,inactive: 0.308,–,inactive: 0.107,inactive: -0.046,–,–,–,–,–,–
FBXO4 (UniProt Q9UKT5),inactive: 0.039,inactive: -0.043,inactive: -0.137,inactive: -0.045,inactive: -0.086,inactive: -0.017,inactive: 0.021,inactive: -0.004,inactive: -0.027,inactive: 0.01,inactive: -0.121
FBXL18 isoform 4 (UniProt Q96ME1),inactive: -0.039,inactive: -0.022,inactive: -0.104,inactive: -0.012,inactive: 0.004,inactive: 0.079,inactive: 0.021,inactive: 0.001,inactive: -0.028,inactive: 0.017,inactive: -0.074

Target,log2 fold change [1],log2 fold change [2],log2 fold change [3],log2 fold change [4],log2 fold change [5],log2 fold change [6],log2 fold change [7],log2 fold change [8],log2 fold change [9],log2 fold change [10],log2 fold change [11]
FAM241A (UniProt Q8N8J7),active: 0.661,inactive: -0.033,inactive: -0.032,inactive: -0.004,active: 0.424,inactive: -0.005,inactive: -0.09,inactive: 0.045,inactive: -0.058,–,–
FBXW9 (UniProt Q5XUX1),inactive: 0.082,inactive: -0.12,inactive: -0.07,inactive: 0.005,inactive: 0.005,–,inactive: 0.05,inactive: 0.005,inactive: 0.045,inactive: -0.131,inactive: -0.02
FGF2 (UniProt P09038),inactive: -0.007,inactive: 0.062,inactive: 0.022,inactive: 0.016,inactive: -0.02,inactive: 0.075,inactive: -0.015,inactive: 0.015,inactive: 0.035,inactive: -0.002,inactive: -0.045
FLVCR1 (UniProt Q9Y5Y0),inactive: -0.119,inactive: -0.021,inactive: 0.048,inactive: -0.026,inactive: 0.003,inactive: -0.06,inactive: -0.041,inactive: 0.025,inactive: -0.088,inactive: -0.035,inactive: -0.033
FBXL12 (UniProt Q9NXK8),inactive: 0.019,inactive: -0.026,inactive: -0.186,inactive: -0.07,inactive: -0.011,inactive: -0.038,inactive: 0.045,inactive: 0.075,inactive: 0.009,inactive: -0.008,inactive: -0.088
FASTKD5 (UniProt Q7L8L6),inactive: -0.146,inactive: -0.238,–,inactive: -0.236,inactive: 0.269,inactive: 0.257,–,–,–,–,inactive: 0.048
FAM78A (UniProt Q5JUQ0),inactive: -0.025,inactive: -0.182,–,inactive: -0.136,inactive: -0.097,inactive: -0.072,inactive: -0.009,–,inactive: -0.025,inactive: -0.083,inactive: 0.071
FASTKD1 (UniProt Q53R41),inactive: 0.046,inactive: -0.014,–,inactive: 0.033,inactive: -0.019,inactive: 0.018,inactive: -0.055,–,inactive: 0.046,–,inactive: -0.12
FAM83A (UniProt Q86UY5),inactive: 0.082,inactive: -0.32,inactive: 0.032,inactive: -0.033,inactive: -0.044,inactive: 0.219,–,inactive: -0.039,–,–,inactive: 0.024
FAM76A isoform 3 (UniProt Q8TAV0),inactive: -0.149,inactive: -0.012,–,inactive: 0.115,inactive: -0.016,inactive: 0.069,inactive: 0.052,–,inactive: 0.159,inactive: 0.09,inactive: 0.103
FLII isoform 2 (UniProt Q13045),inactive: 0.129,inactive: 0.052,–,–,inactive: 0.091,–,–,–,–,–,inactive: 0.125
FLCN (UniProt Q8NFG4),inactive: 0.014,inactive: 0.013,inactive: -0.059,inactive: -0.006,inactive: 0.04,inactive: 0.019,–,inactive: 0.122,–,–,inactive: 0.015
FBH1 isoform 2 (UniProt Q8NFZ0),inactive: -0.091,inactive: -0.167,inactive: -0.016,inactive: -0.149,inactive: 0.106,inactive: 0.032,inactive: -0.038,inactive: 0.164,inactive: 0.54,inactive: 0.011,inactive: -0.221
FHL1 isoform 4 (UniProt Q13642),inactive: -0.083,inactive: -0.28,–,inactive: -0.13,inactive: -0.139,–,–,–,–,–,inactive: 0.044
FAM210B (UniProt Q96KR6),inactive: -0.049,inactive: 0.023,–,inactive: 0.024,inactive: -0.021,inactive: -0.029,inactive: 0.015,–,inactive: -0.086,inactive: -0.022,inactive: -0.057

# An excerpt from further up, as a working copy:
Target,log2 fold change [1],log2 fold change [2],log2 fold change [3],log2 fold change [4],log2 fold change [5],log2 fold change [6],log2 fold change [7],log2 fold change [8],log2 fold change [9],log2 fold change [10],log2 fold change [11]
FGF2 (UniProt P09038),inactive: -0.007,inactive: 0.062,inactive: 0.022,inactive: 0.016,inactive: -0.02,inactive: 0.075,inactive: -0.015,inactive: 0.015,inactive: 0.035,inactive: -0.002,inactive: -0.045
FLVCR1 (UniProt Q9Y5Y0),inactive: -0.119,inactive: -0.021,inactive: 0.048,inactive: -0.026,inactive: 0.003,inactive: -0.06,inactive: -0.041,inactive: 0.025,inactive: -0.088,inactive: -0.035,inactive: -0.033
FBXL12 (UniProt Q9NXK8),inactive: 0.019,inactive: -0.026,inactive: -0.186,inactive: -0.07,inactive: -0.011,inactive: -0.038,inactive: 0.045,inactive: 0.075,inactive: 0.009,inactive: -0.008,inactive: -0.088
FASTKD5 (UniProt Q7L8L6),inactive: -0.146,inactive: -0.238,–,inactive: -0.236,inactive: 0.269,inactive: 0.257,–,–,–,–,inactive: 0.048
FAM78A (UniProt Q5JUQ0),inactive: -0.025,inactive: -0.182,–,inactive: -0.136,inactive: -0.097,inactive: -0.072,inactive: -0.009,–,inactive: -0.025,inactive: -0.083,inactive: 0.071
FASTKD1 (UniProt Q53R41),inactive: 0.046,inactive: -0.014,–,inactive: 0.033,inactive: -0.019,inactive: 0.018,inactive: -0.055,–,inactive: 0.046,–,inactive: -0.12
FAM83A (UniProt Q86UY5),inactive: 0.082,inactive: -0.32,inactive: 0.032,inactive: -0.033,inactive: -0.044,inactive: 0.219,–,inactive: -0.039,–,–,inactive: 0.024
